# The supplement of paper PMC12823440, “Inhibitors supercharge kinase turnover through native proteolytic circuits” (Nature, 2025)
# By UniProt entry, the sequences of proteins in these tests, tags left out. Where a name states a change or a piece, a line headed by the entry shows the natural chain unless it says otherwise.
# UniProt O75460: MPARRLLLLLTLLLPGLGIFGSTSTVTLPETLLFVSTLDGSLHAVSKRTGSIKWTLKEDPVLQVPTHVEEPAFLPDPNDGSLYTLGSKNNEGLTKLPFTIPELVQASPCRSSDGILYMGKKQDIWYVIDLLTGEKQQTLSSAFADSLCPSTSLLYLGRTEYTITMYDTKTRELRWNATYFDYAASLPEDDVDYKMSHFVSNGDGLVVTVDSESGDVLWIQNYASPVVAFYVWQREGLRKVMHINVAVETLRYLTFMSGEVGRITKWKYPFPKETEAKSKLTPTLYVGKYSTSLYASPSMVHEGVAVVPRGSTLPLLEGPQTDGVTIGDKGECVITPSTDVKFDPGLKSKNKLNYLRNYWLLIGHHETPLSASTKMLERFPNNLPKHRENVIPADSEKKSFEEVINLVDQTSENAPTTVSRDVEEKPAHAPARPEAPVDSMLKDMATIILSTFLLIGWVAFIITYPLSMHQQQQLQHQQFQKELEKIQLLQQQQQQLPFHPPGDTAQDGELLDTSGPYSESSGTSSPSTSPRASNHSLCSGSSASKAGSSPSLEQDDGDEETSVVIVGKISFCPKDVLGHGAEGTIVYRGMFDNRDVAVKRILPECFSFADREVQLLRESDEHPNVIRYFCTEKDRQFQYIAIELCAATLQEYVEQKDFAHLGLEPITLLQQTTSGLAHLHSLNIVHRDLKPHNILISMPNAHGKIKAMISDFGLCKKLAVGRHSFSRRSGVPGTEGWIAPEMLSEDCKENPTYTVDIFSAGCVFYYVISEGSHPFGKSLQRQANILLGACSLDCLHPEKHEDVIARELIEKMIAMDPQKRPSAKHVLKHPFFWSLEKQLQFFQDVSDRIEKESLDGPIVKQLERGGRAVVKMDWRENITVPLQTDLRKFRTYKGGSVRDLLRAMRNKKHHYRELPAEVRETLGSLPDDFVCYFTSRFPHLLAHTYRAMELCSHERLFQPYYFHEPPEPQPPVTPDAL
# UniProt P11362, whole entry, looked up: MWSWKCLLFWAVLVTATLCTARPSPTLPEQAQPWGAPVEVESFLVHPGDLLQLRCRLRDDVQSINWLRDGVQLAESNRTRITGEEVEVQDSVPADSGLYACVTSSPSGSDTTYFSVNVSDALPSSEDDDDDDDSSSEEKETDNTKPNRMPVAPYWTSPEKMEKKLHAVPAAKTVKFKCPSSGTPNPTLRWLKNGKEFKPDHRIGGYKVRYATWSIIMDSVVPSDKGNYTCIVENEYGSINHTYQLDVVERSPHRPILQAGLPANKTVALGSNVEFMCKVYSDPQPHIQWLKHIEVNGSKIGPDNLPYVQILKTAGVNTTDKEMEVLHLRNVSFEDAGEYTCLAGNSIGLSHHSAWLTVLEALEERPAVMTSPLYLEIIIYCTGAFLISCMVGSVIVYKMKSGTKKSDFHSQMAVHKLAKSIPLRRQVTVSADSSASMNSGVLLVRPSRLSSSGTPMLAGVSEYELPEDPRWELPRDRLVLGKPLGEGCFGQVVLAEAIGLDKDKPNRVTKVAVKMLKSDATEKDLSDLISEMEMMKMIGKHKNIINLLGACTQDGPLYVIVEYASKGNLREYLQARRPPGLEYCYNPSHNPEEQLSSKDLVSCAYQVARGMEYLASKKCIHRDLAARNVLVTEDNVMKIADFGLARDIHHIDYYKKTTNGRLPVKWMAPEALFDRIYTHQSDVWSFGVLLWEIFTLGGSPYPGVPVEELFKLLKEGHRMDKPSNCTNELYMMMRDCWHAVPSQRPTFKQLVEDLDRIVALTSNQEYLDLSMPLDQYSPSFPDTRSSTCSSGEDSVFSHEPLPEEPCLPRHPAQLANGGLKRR
# UniProt P21802, whole entry, looked up: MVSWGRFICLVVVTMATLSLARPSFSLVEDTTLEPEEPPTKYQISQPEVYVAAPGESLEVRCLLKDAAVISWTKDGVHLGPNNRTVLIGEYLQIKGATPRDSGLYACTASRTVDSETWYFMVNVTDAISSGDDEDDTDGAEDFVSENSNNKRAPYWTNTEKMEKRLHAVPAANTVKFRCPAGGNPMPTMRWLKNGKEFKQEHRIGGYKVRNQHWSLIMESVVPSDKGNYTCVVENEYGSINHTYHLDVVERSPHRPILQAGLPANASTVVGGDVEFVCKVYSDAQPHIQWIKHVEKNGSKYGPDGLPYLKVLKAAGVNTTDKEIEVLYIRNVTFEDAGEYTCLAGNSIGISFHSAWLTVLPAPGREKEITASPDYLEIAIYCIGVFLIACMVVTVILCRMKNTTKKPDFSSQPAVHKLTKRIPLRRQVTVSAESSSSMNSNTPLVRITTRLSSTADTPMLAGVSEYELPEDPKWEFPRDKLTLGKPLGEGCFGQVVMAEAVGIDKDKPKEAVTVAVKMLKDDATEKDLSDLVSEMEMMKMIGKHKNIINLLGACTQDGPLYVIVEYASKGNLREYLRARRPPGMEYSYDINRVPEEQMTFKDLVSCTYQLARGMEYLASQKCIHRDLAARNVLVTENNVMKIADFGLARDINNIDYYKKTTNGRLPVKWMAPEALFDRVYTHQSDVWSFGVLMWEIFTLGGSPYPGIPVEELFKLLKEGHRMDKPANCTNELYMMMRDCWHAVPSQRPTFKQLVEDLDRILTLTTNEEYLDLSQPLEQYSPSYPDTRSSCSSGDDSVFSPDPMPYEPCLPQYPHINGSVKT
# UniProt P36888, whole entry: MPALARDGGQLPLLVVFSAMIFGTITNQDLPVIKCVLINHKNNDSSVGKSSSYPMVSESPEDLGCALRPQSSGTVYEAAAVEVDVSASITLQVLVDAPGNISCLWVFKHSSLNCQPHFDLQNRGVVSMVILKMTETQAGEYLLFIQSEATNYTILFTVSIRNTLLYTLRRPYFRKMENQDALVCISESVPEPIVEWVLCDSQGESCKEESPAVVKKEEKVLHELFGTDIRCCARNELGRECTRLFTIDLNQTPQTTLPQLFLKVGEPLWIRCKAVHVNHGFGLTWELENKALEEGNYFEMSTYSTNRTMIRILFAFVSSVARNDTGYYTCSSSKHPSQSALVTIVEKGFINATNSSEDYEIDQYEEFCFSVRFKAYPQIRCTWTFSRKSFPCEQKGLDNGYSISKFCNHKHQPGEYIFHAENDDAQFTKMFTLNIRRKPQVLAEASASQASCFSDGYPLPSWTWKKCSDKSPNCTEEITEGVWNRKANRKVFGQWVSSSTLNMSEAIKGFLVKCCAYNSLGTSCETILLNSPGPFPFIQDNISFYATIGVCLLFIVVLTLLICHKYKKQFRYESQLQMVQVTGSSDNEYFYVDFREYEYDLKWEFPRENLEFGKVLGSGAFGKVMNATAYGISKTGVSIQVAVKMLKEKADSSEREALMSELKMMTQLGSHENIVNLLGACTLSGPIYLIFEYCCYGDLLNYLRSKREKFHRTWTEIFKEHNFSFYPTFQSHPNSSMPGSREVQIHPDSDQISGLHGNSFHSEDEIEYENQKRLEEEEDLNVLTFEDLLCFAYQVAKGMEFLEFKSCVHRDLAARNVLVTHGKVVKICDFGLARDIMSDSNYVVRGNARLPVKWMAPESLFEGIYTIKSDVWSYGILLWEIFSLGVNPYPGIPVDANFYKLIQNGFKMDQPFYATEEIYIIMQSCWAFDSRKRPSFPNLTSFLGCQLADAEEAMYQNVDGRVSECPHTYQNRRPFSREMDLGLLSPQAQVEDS
# UniProt P06241, whole entry, looked up: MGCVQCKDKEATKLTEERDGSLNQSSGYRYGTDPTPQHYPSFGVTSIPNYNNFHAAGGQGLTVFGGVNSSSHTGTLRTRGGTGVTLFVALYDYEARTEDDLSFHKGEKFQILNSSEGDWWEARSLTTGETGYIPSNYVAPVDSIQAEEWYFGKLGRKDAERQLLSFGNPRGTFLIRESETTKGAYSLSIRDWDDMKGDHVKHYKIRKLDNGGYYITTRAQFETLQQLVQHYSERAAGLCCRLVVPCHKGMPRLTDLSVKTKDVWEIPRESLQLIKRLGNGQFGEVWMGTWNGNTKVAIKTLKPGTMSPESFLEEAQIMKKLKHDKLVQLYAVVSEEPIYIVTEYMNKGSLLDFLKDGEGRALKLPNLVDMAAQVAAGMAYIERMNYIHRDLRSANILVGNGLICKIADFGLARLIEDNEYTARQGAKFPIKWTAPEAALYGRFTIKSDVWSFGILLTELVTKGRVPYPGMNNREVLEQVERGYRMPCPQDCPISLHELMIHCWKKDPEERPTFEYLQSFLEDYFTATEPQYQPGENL
# UniProt P49840: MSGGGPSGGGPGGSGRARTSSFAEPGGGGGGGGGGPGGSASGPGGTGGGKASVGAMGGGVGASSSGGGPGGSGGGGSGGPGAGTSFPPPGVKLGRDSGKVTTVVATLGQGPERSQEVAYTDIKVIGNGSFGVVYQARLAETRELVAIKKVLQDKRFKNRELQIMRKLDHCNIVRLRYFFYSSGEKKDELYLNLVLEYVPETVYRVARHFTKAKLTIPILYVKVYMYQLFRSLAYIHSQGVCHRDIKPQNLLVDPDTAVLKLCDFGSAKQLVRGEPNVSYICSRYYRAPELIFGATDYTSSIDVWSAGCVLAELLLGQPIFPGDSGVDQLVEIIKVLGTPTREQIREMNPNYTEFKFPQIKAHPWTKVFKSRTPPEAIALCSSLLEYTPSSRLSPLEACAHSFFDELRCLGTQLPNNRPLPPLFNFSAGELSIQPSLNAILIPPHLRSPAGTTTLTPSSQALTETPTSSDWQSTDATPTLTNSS
# UniProt P14616: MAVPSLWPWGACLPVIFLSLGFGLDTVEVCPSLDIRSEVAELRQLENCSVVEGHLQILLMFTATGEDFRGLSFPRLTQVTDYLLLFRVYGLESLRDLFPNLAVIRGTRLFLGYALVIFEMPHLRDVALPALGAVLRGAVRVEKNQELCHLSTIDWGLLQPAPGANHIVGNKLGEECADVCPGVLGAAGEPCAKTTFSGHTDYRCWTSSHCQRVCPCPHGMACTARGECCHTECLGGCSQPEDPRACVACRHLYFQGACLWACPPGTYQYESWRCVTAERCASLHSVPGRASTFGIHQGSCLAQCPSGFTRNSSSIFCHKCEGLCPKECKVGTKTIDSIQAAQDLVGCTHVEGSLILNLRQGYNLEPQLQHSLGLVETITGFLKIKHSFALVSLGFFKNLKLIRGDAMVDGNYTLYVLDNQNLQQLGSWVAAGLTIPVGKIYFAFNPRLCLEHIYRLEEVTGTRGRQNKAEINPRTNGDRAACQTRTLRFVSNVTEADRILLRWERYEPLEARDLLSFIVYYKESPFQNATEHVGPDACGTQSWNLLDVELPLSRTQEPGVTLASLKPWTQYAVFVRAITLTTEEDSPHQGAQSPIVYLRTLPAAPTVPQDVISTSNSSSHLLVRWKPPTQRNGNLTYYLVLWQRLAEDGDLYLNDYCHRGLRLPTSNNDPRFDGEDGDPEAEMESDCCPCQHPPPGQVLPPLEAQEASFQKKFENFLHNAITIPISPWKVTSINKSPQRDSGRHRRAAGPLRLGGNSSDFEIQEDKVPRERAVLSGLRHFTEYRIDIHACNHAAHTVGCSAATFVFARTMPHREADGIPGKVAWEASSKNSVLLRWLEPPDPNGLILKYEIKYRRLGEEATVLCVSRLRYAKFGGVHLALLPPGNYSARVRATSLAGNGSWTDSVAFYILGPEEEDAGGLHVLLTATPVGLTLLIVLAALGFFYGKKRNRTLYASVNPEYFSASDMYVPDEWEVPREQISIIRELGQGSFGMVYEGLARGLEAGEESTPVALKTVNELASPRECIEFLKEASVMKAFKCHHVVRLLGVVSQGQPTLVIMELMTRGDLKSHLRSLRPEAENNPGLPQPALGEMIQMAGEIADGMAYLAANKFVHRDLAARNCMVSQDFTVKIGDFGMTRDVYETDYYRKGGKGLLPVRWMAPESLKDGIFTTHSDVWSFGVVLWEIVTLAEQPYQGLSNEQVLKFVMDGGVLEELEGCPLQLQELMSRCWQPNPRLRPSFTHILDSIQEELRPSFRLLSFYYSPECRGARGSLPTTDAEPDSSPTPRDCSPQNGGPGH
# Structures can show the parent of a compound that is named as a salt. This is one part of the list. Hit calls seldom repeat between salt and free forms of one compound.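 Kinases were expressed as nanoluciferase fusions in K562 cells and luminescence was read every 4 h between 2 and 18 h as percent of control, DMSO set to 100% and a positive control to 0%. A time point counts as decreased when the signal drops significantly (2 sigma). The hit call is the authors' own, does not follow from the count of time points alone, and its rule is not shown.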
# Legend:
# Assay in all cases: kinase-Nluc reporter destabilization hit call (1 = scored as downregulated) (binary); higher = compound decreases kinase abundance
# Details in all cases: K562; 2-18 h
# ERN1 = ERN1 (UniProt O75460)
# FGFR1 = FGFR1 (UniProt P11362)
# FGFR2 = FGFR2 (UniProt P21802)
# FGFR3 = FGFR3 (UniProt P22607)
# FGR = FGR (UniProt P09769)
# FLT3 = FLT3 (UniProt P36888)
# FYN = FYN (UniProt P06241)
# GSK3A = GSK3A (UniProt P49840)
# HER2 = HER2 (UniProt P04626)
# INSRR = INSRR (UniProt P14616)
SMILES,kinase-Nluc reporter destabilization hit call (ERN1),kinase-Nluc reporter destabilization hit call (FGFR1),kinase-Nluc reporter destabilization hit call (FGFR2),kinase-Nluc reporter destabilization hit call (FGFR3),kinase-Nluc reporter destabilization hit call (FGR),kinase-Nluc reporter destabilization hit call (FLT3),kinase-Nluc reporter destabilization hit call (FYN),kinase-Nluc reporter destabilization hit call (GSK3A),kinase-Nluc reporter destabilization hit call (HER2),kinase-Nluc reporter destabilization hit call (INSRR)
c1cc(OCCN2CCCCC2)cc(-c2n[nH]c3ccc(-c4nnc[nH]4)cc23)c1 [CC-401 (hydrochloride)] (10 µM),inactive: 0,inactive: 0,inactive: 0,inactive: 0,inactive: 0,inactive: 0,inactive: 0,inactive: 0,inactive: 0,inactive: 0
COc1cc2ncnc(Nc3cccc(Cl)c3F)c2cc1OC(=O)N1CCN(C)C[C@H]1C [Zorifertinib] (10 µM),inactive: 0,inactive: 0,inactive: 0,inactive: 0,inactive: 0,inactive: 0,inactive: 0,inactive: 0,inactive: 0,inactive: 0
Cc1c[nH]c2ccccc12 [Skatole] (10 µM),inactive: 0,inactive: 0,inactive: 0,inactive: 0,inactive: 0,inactive: 0,inactive: 0,inactive: 0,inactive: 0,inactive: 0
Cc1nc(N)sc1-c1ccnc(Nc2ccc(N3CCOCC3)cc2)n1 (10 µM),inactive: 0,inactive: 0,inactive: 0,inactive: 0,inactive: 0,inactive: 0,inactive: 0,inactive: 0,inactive: 0,inactive: 0
O=C1NCCc2[nH]c(-c3ccnc(-c4cnc5ccccc5c4)c3)cc21 (10 µM),inactive: 0,inactive: 0,inactive: 0,inactive: 0,inactive: 0,inactive: 0,inactive: 0,inactive: 0,inactive: 0,inactive: 0
CN(C)C[C@@H]1CCn2cc(c3ccccc32)C2=C(C(=O)NC2=O)c2cn(c3ccccc23)CCO1 [Ruboxistaurin (hydrochloride)] (10 µM),inactive: 0,inactive: 0,inactive: 0,inactive: 0,inactive: 0,inactive: 0,inactive: 0,inactive: 0,inactive: 0,inactive: 0
CCN(CC)CCCCNc1ncc2cc(-c3c(Cl)cccc3Cl)c(NC(=O)NC(C)(C)C)nc2n1 (2.5 µM),inactive: 0,inactive: 0,inactive: 0,inactive: 0,inactive: 0,inactive: 0,inactive: 0,inactive: 0,inactive: 0,inactive: 0
COC(=O)c1ccc2c(C(=Nc3ccc(N(C)C(=O)CN4CCN(C)CC4)cc3)c3ccccc3)c(O)[nH]c2c1 [Nintedanib] (2.5 µM),inactive: 0,inactive: 0,inactive: 0,inactive: 0,inactive: 0,inactive: 0,inactive: 0,inactive: 0,inactive: 0,inactive: 0
COc1cc2ncn(-c3cc(OCc4ccccc4C(F)(F)F)c(C(N)=O)s3)c2cc1OC (10 µM),inactive: 0,inactive: 0,inactive: 0,inactive: 0,inactive: 0,inactive: 0,inactive: 0,inactive: 0,inactive: 0,inactive: 0
Cc1ccc(S(=O)(=O)Nc2nc3ccccc3nc2Nc2ccc3nsnc3c2)cc1 [Pilaralisib analogue] (10 µM),inactive: 0,inactive: 0,inactive: 0,inactive: 0,inactive: 0,active: 1,inactive: 0,inactive: 0,inactive: 0,inactive: 0
CC(C)(C)n1nc(Cc2cccc3ccccc23)c2c(N)ncnc21 (10 µM),inactive: 0,inactive: 0,inactive: 0,inactive: 0,inactive: 0,inactive: 0,inactive: 0,inactive: 0,inactive: 0,inactive: 0
COc1cc2c(Nc3ccc(NC(=O)c4ccccc4)cc3)ncnc2cc1OCCCN1CCOCC1 (10 µM),inactive: 0,inactive: 0,inactive: 0,inactive: 0,inactive: 0,inactive: 0,inactive: 0,inactive: 0,inactive: 0,inactive: 0
N#Cc1ccc2[nH]c(O)c(-c3ccc(CN4CCOCC4)cn3)c2c1 (10 µM),inactive: 0,inactive: 0,inactive: 0,inactive: 0,inactive: 0,inactive: 0,inactive: 0,inactive: 0,inactive: 0,inactive: 0
C=CC(=O)N1C[C@H](Nc2ncnc3[nH]ccc23)CC[C@@H]1C [Ritlecitinib] (10 µM),inactive: 0,inactive: 0,inactive: 0,inactive: 0,inactive: 0,inactive: 0,inactive: 0,inactive: 0,inactive: 0,inactive: 0
CC(C)(C#N)c1ccc(N2C(=O)OCc3cnc4ccc(-c5cnc6ccccc6c5)cc4c32)cc1 (2.5 µM),inactive: 0,inactive: 0,inactive: 0,inactive: 0,inactive: 0,inactive: 0,inactive: 0,inactive: 0,active: 1,inactive: 0
N#CC(=Cc1ccc(O)c(O)c1)C(=O)NCc1ccccc1 (mixture of isomers) (10 µM),inactive: 0,inactive: 0,inactive: 0,inactive: 0,inactive: 0,inactive: 0,inactive: 0,inactive: 0,inactive: 0,inactive: 0

# Structures shown so far containing fluorine:
SMILES,kinase-Nluc reporter destabilization hit call (ERN1),kinase-Nluc reporter destabilization hit call (FGFR1),kinase-Nluc reporter destabilization hit call (FGFR2),kinase-Nluc reporter destabilization hit call (FGFR3),kinase-Nluc reporter destabilization hit call (FGR),kinase-Nluc reporter destabilization hit call (FLT3),kinase-Nluc reporter destabilization hit call (FYN),kinase-Nluc reporter destabilization hit call (GSK3A),kinase-Nluc reporter destabilization hit call (HER2),kinase-Nluc reporter destabilization hit call (INSRR)
COc1cc2ncnc(Nc3cccc(Cl)c3F)c2cc1OC(=O)N1CCN(C)C[C@H]1C [Zorifertinib] (10 µM),inactive: 0,inactive: 0,inactive: 0,inactive: 0,inactive: 0,inactive: 0,inactive: 0,inactive: 0,inactive: 0,inactive: 0
COc1cc2ncn(-c3cc(OCc4ccccc4C(F)(F)F)c(C(N)=O)s3)c2cc1OC (10 µM),inactive: 0,inactive: 0,inactive: 0,inactive: 0,inactive: 0,inactive: 0,inactive: 0,inactive: 0,inactive: 0,inactive: 0

# Remaining list, next part:

SMILES,kinase-Nluc reporter destabilization hit call (ERN1),kinase-Nluc reporter destabilization hit call (FGFR1),kinase-Nluc reporter destabilization hit call (FGFR2),kinase-Nluc reporter destabilization hit call (FGFR3),kinase-Nluc reporter destabilization hit call (FGR),kinase-Nluc reporter destabilization hit call (FLT3),kinase-Nluc reporter destabilization hit call (FYN),kinase-Nluc reporter destabilization hit call (GSK3A),kinase-Nluc reporter destabilization hit call (HER2),kinase-Nluc reporter destabilization hit call (INSRR)
C[C@]1(O)C[C@@H](c2nc(-c3ccc4ccc(-c5ccccc5)nc4c3)c3c(N)nccn32)C1 [Linsitinib] (2.5 µM),inactive: 0,inactive: 0,inactive: 0,inactive: 0,inactive: 0,inactive: 0,inactive: 0,inactive: 0,inactive: 0,inactive: 0
COCc1c(-c2ccc(NC(=O)Nc3cc(C(F)(F)F)ccc3F)c(F)c2)c2c(N)ncnn2c1CN1CCOCC1 (2.5 µM),inactive: 0,inactive: 0,inactive: 0,inactive: 0,inactive: 0,inactive: 0,inactive: 0,inactive: 0,inactive: 0,inactive: 0
CN1CCN(c2ccc(C(=O)Nc3n[nH]c4ccc(Cc5cc(F)cc(F)c5)cc34)c(NC3CCOCC3)c2)CC1 [Entrectinib] (2.5 µM),inactive: 0,inactive: 0,inactive: 0,inactive: 0,inactive: 0,inactive: 0,inactive: 0,inactive: 0,inactive: 0,inactive: 0
Oc1ccc(-c2nc(-c3ccc(F)cc3)c(-c3ccncc3)[nH]2)cc1 (2.5 µM),inactive: 0,inactive: 0,inactive: 0,inactive: 0,inactive: 0,inactive: 0,inactive: 0,inactive: 0,inactive: 0,inactive: 0
CCN1CCN(Cc2ccc(C(=O)Nc3ccc(C)c(Oc4ccc5c(c4)CC(=O)N5)c3)cc2C(F)(F)F)CC1 (2.5 µM),inactive: 0,inactive: 0,inactive: 0,inactive: 0,inactive: 0,inactive: 0,inactive: 0,inactive: 0,inactive: 0,inactive: 0
O=c1c(-c2ccc(O)cc2)coc2cc(O)cc(O)c12 [Genistein] (10 µM),inactive: 0,inactive: 0,inactive: 0,inactive: 0,inactive: 0,inactive: 0,inactive: 0,inactive: 0,inactive: 0,inactive: 0
N#C/C(=C\c1ccc(O)c(O)c1)C(=O)NCc1ccccc1 (10 µM),inactive: 0,inactive: 0,inactive: 0,inactive: 0,inactive: 0,inactive: 0,inactive: 0,inactive: 0,inactive: 0,inactive: 0
COc1cc(OC)cc(-c2cc3cnc(N)nc3nc2NC(=O)NC(C)(C)C)c1 (10 µM),inactive: 0,inactive: 0,inactive: 0,inactive: 0,inactive: 0,inactive: 0,inactive: 0,inactive: 0,inactive: 0,inactive: 0
Cc1ccc(NC(=O)c2cccc(N(C)C)c2)cc1NC(=O)c1ccc(O)cc1 (10 µM),inactive: 0,inactive: 0,inactive: 0,inactive: 0,inactive: 0,inactive: 0,inactive: 0,inactive: 0,inactive: 0,inactive: 0
COc1cc(C=C(C#N)C(N)=O)cc(CSc2nc3ccccc3s2)c1O (10 µM),inactive: 0,inactive: 0,inactive: 0,inactive: 0,inactive: 0,inactive: 0,inactive: 0,inactive: 0,inactive: 0,inactive: 0
COc1cc(Nc2ncc3c(n2)-c2ccc(Cl)cc2C(c2c(F)cccc2OC)=NC3)ccc1C(=O)O [Alisertib] (2.5 µM),inactive: 0,inactive: 0,inactive: 0,inactive: 0,inactive: 0,inactive: 0,inactive: 0,inactive: 0,inactive: 0,inactive: 0
CCN(CCCOc1ccc2c(Nc3cc(CC(=O)Nc4cccc(F)c4)[nH]n3)ncnc2c1)CCOP(=O)(O)O [Barasertib] (10 µM),inactive: 0,inactive: 0,inactive: 0,inactive: 0,inactive: 0,inactive: 0,inactive: 0,inactive: 0,inactive: 0,inactive: 0
CN(C)CCOc1ccc(-c2nc(-c3ccncc3)c(-c3ccc4c(c3)CC/C4=N\O)[nH]2)cc1 (10 µM),inactive: 0,inactive: 0,inactive: 0,inactive: 0,inactive: 0,inactive: 0,inactive: 0,inactive: 0,inactive: 0,inactive: 0
CN1CCC(Nc2ncc3ncnc(Nc4ccc(F)c(Cl)c4)c3n2)CC1 [Falnidamol] (10 µM),inactive: 0,inactive: 0,inactive: 0,inactive: 0,inactive: 0,inactive: 0,inactive: 0,inactive: 0,inactive: 0,inactive: 0
CC#CC(=O)N[C@H]1CCCN(c2c(F)cc(C(N)=O)c3[nH]c(C)c(C)c23)C1 [Branebrutinib] (10 µM),inactive: 0,inactive: 0,inactive: 0,inactive: 0,inactive: 0,inactive: 0,inactive: 0,inactive: 0,inactive: 0,inactive: 0
